Experimental data from article PMC12431657, “Discovery and mechanistic insights of dibenzoylmethane as a broad spectrum inhibitor of coronavirus” (PLOS Pathogens, 2025).
Where a name gives a salt, the structure may show the parent alone. Read-outs that look alike come from different tables or passages of the source. Out of some 3,300 compounds screened, about 60 (2%) showed an effect of 50% or more. Some of the results follow.

System: HCoV-OC43
Parameters: species or system RD; HTS, protection from HCoV-OC43 induced cell death, luminescent cell viability (CellCounting-Lite 2.0), inhibition rate
Details: 24 h post infection, 1 h compound pre-incubation, 10 µM, inhibitor

Row | Structure (SMILES) | OC43 Inhibition rate [%] | OC43 Inhibition rate (OC43 Inhibition rate, 24 h) [%]
1 | C/C=C/c1ccc(OC(C)=O)c(OC)c1 [Isoeugenol acetate] | 6.3 | 
2 | C=CCC(C)C(=O)O (stereo not shown) [2-Methyl-4-pentenoic Acid] | -0.3 | 
3 | CCOC(=O)CC(=O)C(C)(C)C [Ethyl pivaloylacetate] | 0 | 
4 | C=C(CC[C@@H](C(=O)O)[C@H]1[C@H](O)C[C@@]2(C)C3=CC[C@@H](C(=C)C)[C@](C)(CCC(=O)O)C3=CC[C@]12C)C(C)C [Poricoic acid A] | 0.8 | 
5 | O=C(O)CC(O)(CC(=O)O)C(=O)O [Sodium citrate (dihydrate)] |  | -0.7
6 | COc1ccc(CO)cc1OC [Veratryl alcohol] | 9.4 | 
7 | C/C1=C\CCC2=C[C@@H](OC2=O)c2c(C)coc2C1 [Linderalactone] | -0.2 | 
8 | CCCCCCCCCCCCCCCc1cc(O)cc(O)c1 [5-Pentadecylresorcinol] | 11.8 | 
9 | C[C@H](CC[C@@H](O[C@@H]1O[C@H](CO[C@@H]2O[C@H](CO)[C@@H](O)[C@H](O)[C@H]2O)[C@@H](O)[C@H](O)[C@H]1O[C@@H]1O[C@H](CO)[C@@H](O)[C@H](O)[C@H]1O)C(C)(C)O)[C@H]1CC[C@@]2(C)[C@@H]3CC=C4[C@@H](CC[C@H](O[C@@H]5O[C@H](CO[C@@H]6O[C@H](CO)[C@@H](O)[C@H](O)[C@H]6O)[C@@H](O)[C@H](O)[C@H]5O)C4(C)C)[C@]3(C)C(=O)C[C@]12C [11-oxo-mogroside V] | 0 | 
10 | Nc1ccn([C@@H]2O[C@H](COP(=O)(O)O)[C@@H](O)[C@H]2O)c(=O)n1 [Cytidine 5'-monophosphate] | -5.5 | 
11 | C=C[C@H]1[C@H](O[C@@H]2O[C@H](CO)[C@@H](O)[C@H](O)[C@H]2OC(=O)c2c(O)cc(O)cc2-c2cccc(O)c2)OC=C2C(=O)OCC[C@H]21 [Amarogentin] | -2.6 | 
12 | COc1c2ccoc2c(OC[C@H]2OC2(C)C)c2oc(=O)ccc12 [Byakangelicol] | -1.1 | 
13 | CCCCCCC(O)C(=O)O (stereo not shown) [2-Hydroxyoctanoic acid] | 6.7 | 
14 | S=C=NCc1ccccc1 [Benzyl isothiocyanate] | 0.2 | 
15 | CCCCCCCC=O [Octanal] | -0.1 | 
16 | COc1cc(/C=C/C=O)ccc1O [Coniferaldehyde] | 0.7 | 
17 | CCCCCC(C)C(=O)O (stereo not shown) [2-Methylheptanoic acid] | 0 | 
18 | CCC(=O)C(=O)O [2-Oxobutanoic acid] | -0.3 | 
19 | COc1cc([C@@H]2c3cc4c(cc3[C@@H]3OC[C@H]2[C@@H]3CO)OCO4)cc(OC)c1OC [Neoanhydropodophyllol] | -0.6 | 
20 | C=C[C@H]1CN2CC[C@@]3(C(=O)Nc4ccccc43)[C@@H]2C[C@@H]1/C(=C\OC)C(=O)OC [Isocorynoxeine] | -0.3 | 

Row | Structure (SMILES) | OC43 Inhibition rate [%] | OC43 Inhibition rate (OC43 Inhibition rate, 24 h) [%]
21 | C=C[C@H]1[C@H](O[C@@H]2O[C@H](CO)[C@@H](O)[C@H](O)[C@H]2O)OC=C(C(=O)OC)[C@H]1C[C@@H]1c2cc(O)c(O)cc2CCN1C(C)=O [Ipecoside] | 1.4 | 
22 | COc1ccc(-c2cc(=O)c3c(OC)cc(OC)cc3o2)cc1 [5,7,4'-Trimethoxyflavone] | 0.4 | 
23 | Cc1c(=O)c(=O)c2c3c[nH]c4c(C)c(=O)c(=O)c(c5c[nH]c1c52)c43 [Melanin] | -0.2 | 
24 | C[C@H](Cc1ccc(O)c(O)c1)[C@@H](C)Cc1ccc(O)c(O)c1 [Nordihydroguaiaretic acid] | -0.6 | 
25 | C[C@H](O)[C@H](O)[C@H]1CNc2nc(N)[nH]c(=O)c2N1 [Tetrahydrobiopterin] | 0.1 | 
26 | C[n+]1cccc(C(=O)[O-])c1 [Trigonelline] |  | 1.3
27 | CC(CCC(=O)O)CC(=O)O (stereo not shown) [3-Methyladipic acid] | -0.9 | 
28 | CCCCCCCCC1=C(CCCCCCCC(=O)O)C1 [Sterculic acid] | -0.9 | 
29 | O=C(O)c1cc(O)ccc1O [2,5-Dihydroxybenzoic acid] | 1.4 | 
30 | COc1cc2ccc(=O)oc2cc1OC [Scoparone] | 0.8 | 
31 | O=C(/C=C/c1ccc(O)c(O)c1)c1ccc(O)c(O)c1O [Okanin] | 22 | 
32 | C[C@H]1[C@H]2CC[C@H]3[C@@H]4CC=C5C[C@@H](N(C)C)CC[C@]5(C)[C@H]4CC[C@]23CN1C [Conessine] | 52.4 | 
33 | O=C(O)C1CCCCC1 [Cyclohexanecarboxylic acid] | 10.2 | 
34 | CC(=O)N[C@@H](CC(N)=O)C(=O)O [(S)-2-acetamido-4-amino-4-oxobutanoic acid] | 0.1 | 
35 | CC(C)CCC[C@](C)(O)[C@H]1CC[C@H]2[C@@H]3CC=C4C[C@@H](O)CC[C@]4(C)[C@H]3CC[C@@]21C [20(S)-Hydroxycholesterol] | 0 | 
36 | COC(=O)[C@H]1[C@H]2C[C@H]3c4[nH]c5ccccc5c4CCN3C[C@H]2CC[C@@H]1O [Rauwolscine (hydrochloride)] | 0.1 | 
37 | CCCCCCCC(=O)c1c(O)cc(O)cc1CC(=O)OCC [Cytosporone B] | 0.2 | 
38 | CC(C)=CCC[C@@H](C)[C@@H]1CC[C@]2(C)C3=C(CC[C@@]12C)[C@@]1(C)CC[C@H](O)C(C)(C)[C@@H]1CC3 [Euphol] | 25.9 | 
39 | CCCCC/C=C\C/C=C\C/C=C\C/C=C\CCCC(=O)O[C@H]1CC[C@@]2(C)C(=CC[C@H]3[C@@H]4CC[C@H]([C@H](C)CCCC(C)C)[C@@]4(C)CC[C@@H]32)C1 [Cholesteryl arachidonate] | 0 | 
40 | COc1ccc(CCC(=O)c2c(O)cc(O[C@@H]3O[C@H](CO)[C@@H](O)[C@H](O)[C@H]3O[C@@H]3O[C@@H](C)[C@H](O)[C@@H](O)[C@H]3O)cc2O)cc1O [Neohesperidin dihydrochalcone] | 0 | 

Row | Structure (SMILES) | OC43 Inhibition rate [%] | OC43 Inhibition rate (OC43 Inhibition rate, 24 h) [%]
41 | O=C(/C=C/c1ccc(O)c(O)c1)O[C@@H](C(=O)O)[C@@H](O)C(=O)O [Caftaric acid] | 0.6 | 
42 | CO[C@H]1C[C@H](O[C@H]2CC[C@@]3(C)[C@H](CC[C@@H]4[C@@H]3CC[C@]3(C)[C@@H](C5=CC(=O)OC5)[C@@H](OC(C)=O)C[C@]43O)C2)O[C@@H](C)[C@@H]1O [Oleandrin] | 1.5 | 
43 | C=C(C)[C@@H]1CC[C@]2(C(=O)O[C@@H]3O[C@H](CO[C@@H]4O[C@H](CO)[C@@H](O[C@@H]5O[C@@H](C)[C@H](O)[C@@H](O)[C@H]5O)[C@H](O)[C@H]4O)[C@@H](O)[C@H](O)[C@H]3O)CC[C@]3(C)[C@H](CC[C@@H]4[C@@]5(C)CC[C@H](O[C@@H]6OC[C@H](O)[C@H](O)[C@H]6O[C@@H]6O[C@@H](C)[C@H](O)[C@@H](O)[C@H]6O)[C@@](C)(CO)[C@@H]5CC[C@]43C)[C@@H]12 [Pulchinenoside C] | -0.7 | 
44 | CCCCC/C=C\C/C=C\CCCCCCCCO [Linoleyl alcohol] | 4.7 | 
45 | CC1(C)COC(=O)[C@@H]1O [(R)-3-Hydroxy-4,4-dimethyldihydrofuran-2(3H)-one] | -0.1 | 
46 | CC(C)=CCC[C@](C)(O[C@@H]1O[C@H](CO[C@@H]2OC[C@@H](O)[C@H](O)[C@H]2O)[C@@H](O)[C@H](O)[C@H]1O)[C@H]1CC[C@]2(C)[C@@H]1[C@H](O)C[C@@H]1[C@@]3(C)CC[C@H](O[C@@H]4O[C@H](CO)[C@@H](O)[C@H](O)[C@H]4O[C@@H]4O[C@H](CO)[C@@H](O)[C@H](O)[C@H]4O)C(C)(C)[C@@H]3CC[C@]12C [Ginsenoside Rb3] | -0.1 | 
47 | C[C@H](CCC(=O)O)[C@H]1CC[C@H]2[C@@H]3[C@@H](O)C[C@@H]4C[C@H](O)CC[C@]4(C)[C@H]3C[C@H](O)[C@]12C [Ursocholic acid] | 0.7 | 
48 | CCC[C@@H]1C[C@@H](C(=O)N[C@@H]([C@H]2O[C@H](SC)[C@H](O)[C@@H](O)[C@H]2O)[C@@H](C)O)N(C)C1 [Lincomycin (hydrochloride monohydrate)] | -2.1 | 
49 | O=Cc1ccccc1C(=O)O [2-Carboxybenzaldehyde] | -0.4 | 
50 | CC(C)=CCc1cc2c(cc1O)O[C@H](c1ccc(O)cc1)CC2=O [Bavachin] | 66.9 | 
51 | C/C=C(/C)C(=O)O[C@H]1[C@H](OC(C)=O)[C@]2(CO)[C@H](O)C[C@]3(C)C(=CC[C@@H]4[C@@]5(C)CC[C@H](O[C@@H]6O[C@H](C(=O)O)[C@@H](O[C@@H]7O[C@H](CO)[C@@H](O)[C@H](O)[C@H]7O)[C@H](O)[C@H]6O[C@@H]6O[C@H](CO)[C@@H](O)[C@H](O)[C@H]6O)[C@](C)(CO)[C@@H]5CC[C@]43C)[C@@H]2CC1(C)C [Escin IB] | 0.4 | 
52 | O=C(O)c1ccc(=O)oc1 [Coumalic acid] | 10.5 | 
53 | COc1cc2oc(-c3ccc(O)c(O)c3)cc(=O)c2c(O)c1OC [Cirsiliol] | 26.8 | 
54 | c1cc2c(c3c1CC1c4cc5c(cc4CCN1C3)OCO5)OCO2 (racemic) [(±)-Stylopine] | -0.3 | 
55 | COc1ccc2cc3[n+](cc2c1OC)CCc1cc2c(cc1-3)OCO2 [Berberine (chloride hydrate)] |  | -15
56 | CCc1cccc(C)c1O [2-Ethyl-6-methylphenol] | -0.6 | 
57 | COc1ccc(-c2cc(=O)c3c(OC)c(OC)c(OC)c(OC)c3o2)cc1OC [Nobiletin] | 7.9 | 
58 | COc1cc(-c2coc3cc4c(c(O)c3c2=O)OCO4)cc(O)c1OC [Dichotomitin] | 0.4 | 

Part of the list above, as a markdown table.

| Row | Structure (SMILES) | OC43 Inhibition rate [%] | OC43 Inhibition rate (OC43 Inhibition rate, 24 h) [%] |
| --- | --- | --- | --- |
| 32 | C[C@H]1[C@H]2CC[C@H]3[C@@H]4CC=C5C[C@@H](N(C)C)CC[C@]5(C)[C@H]4CC[C@]23CN1C [Conessine] | 52.4 |  |
| 33 | O=C(O)C1CCCCC1 [Cyclohexanecarboxylic acid] | 10.2 |  |
| 34 | CC(=O)N[C@@H](CC(N)=O)C(=O)O [(S)-2-acetamido-4-amino-4-oxobutanoic acid] | 0.1 |  |
| 35 | CC(C)CCC[C@](C)(O)[C@H]1CC[C@H]2[C@@H]3CC=C4C[C@@H](O)CC[C@]4(C)[C@H]3CC[C@@]21C [20(S)-Hydroxycholesterol] | 0 |  |
| 36 | COC(=O)[C@H]1[C@H]2C[C@H]3c4[nH]c5ccccc5c4CCN3C[C@H]2CC[C@@H]1O [Rauwolscine (hydrochloride)] | 0.1 |  |
| 37 | CCCCCCCC(=O)c1c(O)cc(O)cc1CC(=O)OCC [Cytosporone B] | 0.2 |  |
| 38 | CC(C)=CCC[C@@H](C)[C@@H]1CC[C@]2(C)C3=C(CC[C@@]12C)[C@@]1(C)CC[C@H](O)C(C)(C)[C@@H]1CC3 [Euphol] | 25.9 |  |
| 39 | CCCCC/C=C\C/C=C\C/C=C\C/C=C\CCCC(=O)O[C@H]1CC[C@@]2(C)C(=CC[C@H]3[C@@H]4CC[C@H]([C@H](C)CCCC(C)C)[C@@]4(C)CC[C@@H]32)C1 [Cholesteryl arachidonate] | 0 |  |
| 40 | COc1ccc(CCC(=O)c2c(O)cc(O[C@@H]3O[C@H](CO)[C@@H](O)[C@H](O)[C@H]3O[C@@H]3O[C@@H](C)[C@H](O)[C@@H](O)[C@H]3O)cc2O)cc1O [Neohesperidin dihydrochalcone] | 0 |  |
| 41 | O=C(/C=C/c1ccc(O)c(O)c1)O[C@@H](C(=O)O)[C@@H](O)C(=O)O [Caftaric acid] | 0.6 |  |
| 42 | CO[C@H]1C[C@H](O[C@H]2CC[C@@]3(C)[C@H](CC[C@@H]4[C@@H]3CC[C@]3(C)[C@@H](C5=CC(=O)OC5)[C@@H](OC(C)=O)C[C@]43O)C2)O[C@@H](C)[C@@H]1O [Oleandrin] | 1.5 |  |
| 43 | C=C(C)[C@@H]1CC[C@]2(C(=O)O[C@@H]3O[C@H](CO[C@@H]4O[C@H](CO)[C@@H](O[C@@H]5O[C@@H](C)[C@H](O)[C@@H](O)[C@H]5O)[C@H](O)[C@H]4O)[C@@H](O)[C@H](O)[C@H]3O)CC[C@]3(C)[C@H](CC[C@@H]4[C@@]5(C)CC[C@H](O[C@@H]6OC[C@H](O)[C@H](O)[C@H]6O[C@@H]6O[C@@H](C)[C@H](O)[C@@H](O)[C@H]6O)[C@@](C)(CO)[C@@H]5CC[C@]43C)[C@@H]12 [Pulchinenoside C] | -0.7 |  |
| 44 | CCCCC/C=C\C/C=C\CCCCCCCCO [Linoleyl alcohol] | 4.7 |  |
| 45 | CC1(C)COC(=O)[C@@H]1O [(R)-3-Hydroxy-4,4-dimethyldihydrofuran-2(3H)-one] | -0.1 |  |
| 46 | CC(C)=CCC[C@](C)(O[C@@H]1O[C@H](CO[C@@H]2OC[C@@H](O)[C@H](O)[C@H]2O)[C@@H](O)[C@H](O)[C@H]1O)[C@H]1CC[C@]2(C)[C@@H]1[C@H](O)C[C@@H]1[C@@]3(C)CC[C@H](O[C@@H]4O[C@H](CO)[C@@H](O)[C@H](O)[C@H]4O[C@@H]4O[C@H](CO)[C@@H](O)[C@H](O)[C@H]4O)C(C)(C)[C@@H]3CC[C@]12C [Ginsenoside Rb3] | -0.1 |  |
| 47 | C[C@H](CCC(=O)O)[C@H]1CC[C@H]2[C@@H]3[C@@H](O)C[C@@H]4C[C@H](O)CC[C@]4(C)[C@H]3C[C@H](O)[C@]12C [Ursocholic acid] | 0.7 |  |
| 48 | CCC[C@@H]1C[C@@H](C(=O)N[C@@H]([C@H]2O[C@H](SC)[C@H](O)[C@@H](O)[C@H]2O)[C@@H](C)O)N(C)C1 [Lincomycin (hydrochloride monohydrate)] | -2.1 |  |
